No constants are given. Whether binding was seen depends on the method and setting. Binding calls can cover weak binding; strength is not graded here.

This is an account of results in paper PMC7935941.

For this assay, the target named is Protease1(N) (Bacillus amyloliquefaciens). Briefly: crystal structure; Protease1(N) at 12 mg/mL crystallised from 5 mM HEPES pH 7.0, 10 mM azide, 0.53 mM LFRAL pentapeptide; 17 °C; both purified.

Take LFRAL [LFRAL pentapeptide]: the binding entry is “binds”.
